Data as given in PubChem BioAssay AID1224826 (NIAID, 2016)

Aim: 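Genes that change LPS-induced Tnf promoter activity in mouse macrophages when knocked down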 (primary screen)
System: RAW264.7 G9 macrophages from mouse bearing reporters for p65 (GFP) and the Tnf promoter (mCherry)
Knock-down reagent: siRNA pool against mouse genes, 100 nM
Time to read-out: 16 h of LPS stimulation, after 2 days of siRNA transfection
Treatment: bacterial lipopolysaccharide (Salmonella minnesota R595), 10 ng/ml
Measured: 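Nuclear mCherry signal of the Tnf promoter reporter measured by imaging after background removal, scaled to each plate median and turned into robust z-scores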
Reading the numbers: Tnf reporter robust z-score: higher = stronger Tnf promoter reporter signal after LPS
Active means: 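a well counts as active at a score of -1.3 or below (Tlr4 knock-down control median) or above 3 (raised signal); controls and wells holding fewer than 50 cells are excluded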
Calls: active = Tnf reporter clearly lowered or raised; inactive = no clear change in Tnf reporter
Here is a random part of about 17,000 reagents tested. About 1,110 of them (6.6%) were called active. 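Active means lowered or raised reporter signal; replicate intensities are raw and not normalised per plate.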 Not all columns of the deposit are shown.

For Pnrc2 (proline-rich nuclear receptor coactivator 2) [SID315471018], how do the results read?
Tnf reporter robust z-score: 0.98; fewer than 50 cells in well: enough cells in well; Call: inactive

What did the screen give for Zfp322a (zinc finger protein 322A) [SID315478173]?
Tnf reporter robust z-score: 2.54; fewer than 50 cells in well: enough cells in well; Call: inactive

What is on record for Ptpn18 (protein tyrosine phosphatase, non-receptor type 18) [SID315468800]?
Tnf reporter robust z-score: -0.54; fewer than 50 cells in well: enough cells in well; Call: inactive

Which result is listed for Atp6v1d (ATPase, H+ transporting, lysosomal V1 subunit D) [SID315474790]?
Tnf reporter robust z-score: -0.61; fewer than 50 cells in well: enough cells in well; Call: inactive

What is on record for Mtfp1 (mitochondrial fission process 1) [SID315473301]?
Tnf reporter robust z-score: -0.74; fewer than 50 cells in well: enough cells in well; Call: inactive

For Mrps10 (mitochondrial ribosomal protein S10) [SID315472114], what does the deposit list?
Tnf reporter robust z-score: -0.57; fewer than 50 cells in well: enough cells in well; Call: inactive

For Samm50 (SAMM50 sorting and assembly machinery component) [SID315473596], what does the deposit list?
Tnf reporter robust z-score: -0.67; fewer than 50 cells in well: enough cells in well; Call: inactive

How did the screen score Amd1 (S-adenosylmethionine decarboxylase 1) [SID315465403]?
Tnf reporter robust z-score: -1.21; fewer than 50 cells in well: enough cells in well; Call: inactive

What is on record for Sptbn4 (spectrin beta, non-erythrocytic 4) [SID315475699]?
Tnf reporter robust z-score: 3.11; fewer than 50 cells in well: enough cells in well; Call: active

With Srrt (serrate RNA effector molecule homolog (Arabidopsis)) [SID315475858], what does the deposit list?
Tnf reporter robust z-score: -1.67; fewer than 50 cells in well: enough cells in well; Call: active

What is on record for Uba2 (ubiquitin-like modifier activating enzyme 2) [SID315470897]?
fewer than 50 cells in well: fewer than 50 cells per well; well left out of calls; Call: inactive

With Zfp319 (zinc finger protein 319) [SID315475669], what was measured?
Tnf reporter robust z-score: 0.37; fewer than 50 cells in well: enough cells in well; Call: inactive

With Ypel3 (yippee like 3) [SID315472207], what was measured?
Tnf reporter robust z-score: 0.39; fewer than 50 cells in well: enough cells in well; Call: inactive

For Kcns2 (K+ voltage-gated channel, subfamily S, 2) [SID315467602], what was measured?
Tnf reporter robust z-score: 0.11; fewer than 50 cells in well: enough cells in well; Call: inactive

What is on record for Or8b47 (olfactory receptor family 8 subfamily B member 47) [SID315480505]?
fewer than 50 cells in well: fewer than 50 cells per well; well left out of calls; Call: inactive

For Ngly1 (N-glycanase 1) [SID315471945], what was measured?
Tnf reporter robust z-score: -0.03; fewer than 50 cells in well: enough cells in well; Call: inactive

How did the screen score Tent5b (terminal nucleotidyltransferase 5B) [SID315476222]?
fewer than 50 cells in well: fewer than 50 cells per well; well left out of calls; Call: inactive

Which result is listed for 2810407A14Rik (RIKEN cDNA 2810407A14 gene) [SID315473991]?
fewer than 50 cells in well: fewer than 50 cells per well; well left out of calls; Call: inactive

With Or7e168 (olfactory receptor family 7 subfamily E member 168) [SID315480191], what was measured?
Tnf reporter robust z-score: 0.43; fewer than 50 cells in well: enough cells in well; Call: inactive

With Pira6 (paired-Ig-like receptor A6) [SID315468526], what was measured?
Tnf reporter robust z-score: 2.53; fewer than 50 cells in well: enough cells in well; Call: inactive

Which result is listed for Ralbp1 (ralA binding protein 1) [SID315468978]?
Tnf reporter robust z-score: 0.26; fewer than 50 cells in well: enough cells in well; Call: inactive

With Hyal1 (hyaluronoglucosaminidase 1) [SID315467355], how do the results read?
Tnf reporter robust z-score: 0.38; fewer than 50 cells in well: enough cells in well; Call: inactive

Which result is listed for Angpt2 (angiopoietin 2) [SID315465346]?
Tnf reporter robust z-score: -0.25; fewer than 50 cells in well: enough cells in well; Call: inactive

For Rrm1 (ribonucleotide reductase M1) [SID315469056], how do the results read?
fewer than 50 cells in well: fewer than 50 cells per well; well left out of calls; Call: inactive

For Slfn1 (schlafen 1) [SID315469318], how do the results read?
fewer than 50 cells in well: fewer than 50 cells per well; well left out of calls; Call: inactive

How did the screen score Nckap5 (NCK-associated protein 5) [SID315481125]?
Tnf reporter robust z-score: -0.13; fewer than 50 cells in well: enough cells in well; Call: inactive

What did the screen give for Gpr4 (G protein-coupled receptor 4) [SID315481050]?
Tnf reporter robust z-score: -0.25; fewer than 50 cells in well: enough cells in well; Call: inactive

Called active, of those listed so far:
Sptbn4 (spectrin beta, non-erythrocytic 4) [SID315475699] — Tnf reporter robust z-score = 3.11; fewer than 50 cells in well = enough cells in well; Call = active
Srrt (serrate RNA effector molecule homolog (Arabidopsis)) [SID315475858] — Tnf reporter robust z-score = -1.67; fewer than 50 cells in well = enough cells in well; Call = active
